PubChem BioAssay AID504774 – Drosophila RNAi Screening Center, 2011
In all, the deposit lists about 23,000 reagents; this is an unselected part of those that have a named target and a result. 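Values are quantile-normalised luminescence on an arbitrary scale; higher means more cells surviving MMS.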 Not all columns of the deposit are shown. No sequences are given here.

- Aim: 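Genes required for cells to withstand methyl methanesulphonate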 (primary screen)
- System: Drosophila Kc167 cells
- Reagent: long dsRNA against Drosophila genes, about 0.25 µg dsRNA per well
- Time to read-out: about 6 days: 3 days knock-down, then 3 days with or without MMS
- Treatment: methyl methanesulphonate 0.004% (w/v) for 3 days after knock-down
- Read-out: 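Viability in wells given MMS, read as ATP luminescence, normalised by quantiles plate by plate and averaged across replicates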
- Reading the numbers: mean viability with MMS: higher = more surviving cells after MMS

After knock-down of Muc12Ea [DRSC19937], the record shows mean viability with MMS 3.62e6.
Against CG18418 [DRSC08535], the entry reads mean viability with MMS 3.56e6.
After knock-down of CG32053 [DRSC10683], the screen gave mean viability with MMS 3.56e6.
With knock-down of pb [DRSC12409] the results were mean viability with MMS 3.58e6.
With knock-down of pb [DRSC12629], the screen gave mean viability with MMS 3.33e6.
Knock-down of CG14102 [DRSC10103] resulted in: mean viability with MMS 3.59e6.
CG6966 [DRSC16156] scored mean viability with MMS 3.51e6.
SRPK [DRSC07090] gave mean viability with MMS 3.68e6.
Against Acp62F [DRSC08136], the values are mean viability with MMS 3.52e6.
Against Myo61F [DRSC22144], the entry reads mean viability with MMS 3.65e6.
Knock-down of NaPi-III [DRSC10893] came out at: mean viability with MMS 3.59e6.
NaPi-III [DRSC10894] gave mean viability with MMS 3.03e6.
Depletion of NaPi-III [DRSC22953] came out at: mean viability with MMS 3.65e6.
With knock-down of Ykt6 [DRSC17970], the record shows mean viability with MMS 3.61e6.
With knock-down of CG16826 [DRSC02527] the results were mean viability with MMS 3.48e6.
For CG12699 [DRSC06162], the entry reads mean viability with MMS 3.55e6.

Reformatted: results already given.
pb [DRSC12409]
- mean viability with MMS: 3.58e6

pb [DRSC12629]
- mean viability with MMS: 3.33e6

CG14102 [DRSC10103]
- mean viability with MMS: 3.59e6

CG6966 [DRSC16156]
- mean viability with MMS: 3.51e6

The list goes on.
CG1632 [DRSC17558] scored mean viability with MMS 3.62e6.
CG1632 [DRSC18110] showed mean viability with MMS 3.52e6.
Against trk [DRSC03625], the entry reads mean viability with MMS 3.61e6.
CG43773 [DRSC00287] showed mean viability with MMS 3.35e6.
With knock-down of CG43773 [DRSC00288] the results were mean viability with MMS 3.52e6.
After knock-down of CG32267 [DRSC21561], the record shows mean viability with MMS 3.57e6.
After knock-down of shtd [DRSC20166] the results were mean viability with MMS 3.43e6.
With knock-down of CG31103 [DRSC22324], the record shows mean viability with MMS 3.46e6.
